Assay results reported in paper PMC5118774 (Frontiers in Pharmacology, 2016).

What was measured:
[1] = tested on: mice exposed to unpredictable chronic mild stress (UCMS); experiment: Open field test after UCMS; format: in vivo, C57BL/6J mice; conditions: female and male UCMS mice, 30 mg/kg i.p., control measure (Figure S1C)
[2] = tested on: mice exposed to unpredictable chronic mild stress (UCMS); experiment: Novelty suppressed feeding test after UCMS; format: in vivo, C57BL/6J mice; conditions: female and male UCMS mice, 30 mg/kg i.p.
Text: Mice underwent between 6 and 8 weeks of UCMS (see Supplementary Table S1 for example UCMS schedule). Animals were exposed to 2–3 mild stressors each day throughout the light/dark cycle, including wet bedding, brief restraint, forced bath, no bedding, reduced space, and predator odor over a period of several weeks (see details in Supplementary Material) ([Edgar et al., 2011]; [Lin and Sibille, 2015]). Female mice were housed 5 per cage, and male mice were housed 4 per cage in Optimice cages (Animal Care Systems Inc, Centennial, CO, USA). In experiment 3.4, UCMS was augmented with single-cage isolation housing in male mice beginning at the fourth week of UCMS until sacrifice. […]
After 5 weeks of UCMS, including 3 weeks of drug treatment, animals were assessed in a battery of behavioral tests (each test separated by 48 h, UCMS continued throughout behavioral testing for a period of 1–3 weeks). […] Number of entries into all arms as well as the time spent in the open arms was recorded for 10 min. […] A normal food pellet was placed into the brightly lit center and the latency for an animal to approach and bite the pellet was recorded over a 12 min session. […] Mice were then placed into the opposing chamber separated by the white divider and monitored for 10 min. The latency for each mouse to bite the cookie was recorded. […]

With C#Cc1ccc2c(c1)C(c1ccccc1F)=N[C@H](C)c1c(C(=O)OCC)ncn1-2 [α5-PAM] the “locomotion (total distance traveled) in the OFT” value [1] was “no main effect of treatment”, the “percentage of weight lost after 24 h food deprivation prior to the NSF” value ([2]; control measure (Figure S1A)) was “No effect” and the “amount of normal chow consumed in the home cage after the NSF” value ([2]; control measure (Figure S1B)) was “no effect of treatment”.
